A: 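Methionyl-tRNA synthetase (putative), Leishmania donovani (UniProt E9BF75). Primary screen of methionyl-tRNA synthetase; the read-out is not stated. The test concentration is not given. The values are filed as inhibition. Size under these conditions: about 68,000 compounds, about 24 of them at 50% or above in at least one test.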
B: 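Assay on Mycobacterium tuberculosis, filed only as a heat shock assay from Cornell; the read-out is not stated. The concentration is filed as 10 mM, unlikely as a test dose, so the dose is not known. Direction is inferred from retests: higher values go with stronger inhibition. About 69,000 compounds were tested under these conditions; 1.4% (about 930) showed 50% or more at least once.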

Amino acid sequences for entries named in this document (tags omitted).
UniProt E9BF75, entry or part of it: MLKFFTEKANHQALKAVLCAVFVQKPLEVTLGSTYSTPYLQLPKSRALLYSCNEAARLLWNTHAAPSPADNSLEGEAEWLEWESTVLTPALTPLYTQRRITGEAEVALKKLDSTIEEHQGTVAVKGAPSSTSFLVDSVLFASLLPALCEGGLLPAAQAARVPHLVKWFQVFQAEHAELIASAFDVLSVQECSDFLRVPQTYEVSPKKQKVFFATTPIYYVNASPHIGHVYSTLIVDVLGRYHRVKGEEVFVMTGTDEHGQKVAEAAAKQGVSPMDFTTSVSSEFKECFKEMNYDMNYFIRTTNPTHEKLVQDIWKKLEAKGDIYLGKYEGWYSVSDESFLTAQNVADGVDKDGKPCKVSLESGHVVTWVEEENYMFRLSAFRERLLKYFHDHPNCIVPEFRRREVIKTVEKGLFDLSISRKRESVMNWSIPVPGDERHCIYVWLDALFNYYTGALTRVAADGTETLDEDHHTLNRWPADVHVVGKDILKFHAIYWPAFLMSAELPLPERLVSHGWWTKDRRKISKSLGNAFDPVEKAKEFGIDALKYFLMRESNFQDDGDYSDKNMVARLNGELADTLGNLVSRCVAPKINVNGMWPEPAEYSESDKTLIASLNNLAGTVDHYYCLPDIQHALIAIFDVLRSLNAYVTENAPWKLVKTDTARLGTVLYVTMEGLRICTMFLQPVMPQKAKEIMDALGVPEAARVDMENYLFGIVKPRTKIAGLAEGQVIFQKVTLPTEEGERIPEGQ

Results are percentages, as filed. The record does not define 0% and 100%; most values in the screen are far below 50% and negative numbers occur (in some assays of this library far below -100). This is an unselected part of the compounds tested. A dash means the value is not listed here; it may have been measured.

SMILES	A	B
Cc1cc(C)n(-c2ccc(C(C)NS(=O)(=O)CCCS(C)(=O)=O)cc2)n1 (stereo not shown)	8.564	-8.113
COCCNS(=O)(=O)c1cccc2c1CN(C(=O)c1ccoc1)CC2	6.989	-30.07
CCN1N=C(C(=O)N2CCCC(c3nc(C)c(C)s3)C2)CCC1=O (stereo not shown)	13.39	-7.12
CN(C)CCNCCC(c1ccccc1)C1CCOC(C)(C)C1.O=C(O)C(=O)O (stereo not shown)	-	15.03
CCc1nc(CC(=O)N2CCCC2CN2CCCC2)cs1 (stereo not shown)	16.08	19.53
COC(=O)CCNC(=O)c1nnn(-c2ccccc2)c1C(F)(F)F	16.33	-26.35
CCCc1ccc2oc(C(=O)N3CCN(CCOC)CC3)c(C)c2c1	19.87	-12.81
COc1nn(C)c2c1CCCN(C(=O)c1ccc(C)c(F)c1)C2	10.18	-21.55
O=C(NCc1ccc(-n2cncn2)nc1)c1ccc2c(c1)CCC2	19.94	-5.927
CC1c2ncc(Cn3cncn3)n2CCN1C(=O)N(C)C (stereo not shown)	11.23	-30.23
Cc1nn(C)c(C)c1C1CCCN1C(=O)c1ccc2c(c1)OCCO2 (stereo not shown)	22.22	-31.33
O=C(c1ccc2ccc(N3CCN(CC4CC4)CC3)n2c1)N1CCCO1	1.047	-
Cc1cnc(N2CCC3(C2)CN(S(=O)(=O)C2CC2)C3)nc1	15.69	-17.72
O=C(O)C(F)(F)F.[H][C@@]12CCN(Cc3cc(C)on3)C[C@]1(C(=O)NC(C)C)CCO2	-	9.135
O=C(O)[C@H]1CN(Cc2ccccc2)C[C@@H]1C(=O)c1ccccc1	17.44	10.17
Cc1noc(C)c1CNS(=O)(=O)N(C)Cc1ccccc1Br	12.53	1.097
CNS(=O)(=O)c1ccc(CN2CCC(c3ccncc3)CC2)cc1	0.8357	-14.71
Cn1cnnc1SCC(=O)N1C[C@H]2CC[C@@H]1CN(Cc1cccnc1)C2	9.067	-
COc1ccc(C(=O)Nc2cnn(CC(=O)NC3CCCC3)c2)c(O)c1	16.5	7.488
CN(C)CCN1CCOCC12CCN(C(=O)C1CC1)CC2	12.88	-
c1snnc1CN1C[C@H]2CCC[C@@H](CN3CCOCC3)[C@H]2C1	10.65	-
O=S(=O)(c1ccccc1)N1CCCC(c2nccs2)C1 (stereo not shown)	12.22	-14.56
O=C1[C@H]2CN(C3CCOCC3)C[C@H]2CN1Cc1cccc(F)c1	8.591	-
COc1cccc(CC2CCCN2CCCC#N)c1 (stereo not shown)	11.17	11.02
OCCC1CN(c2ncnc3[nH]cnc23)CCN1Cc1ccccc1 (stereo not shown)	12.32	-2.367
CCC1CN(CCNS(C)(=O)=O)c2ccccc2O1 (stereo not shown)	9.581	-24.06
COCCN(C)C[C@@H]1CCC[C@@H]2CN(c3cc(OC)ncn3)C[C@@H]21	17.6	-
COCCN1CCN(CC(=O)N(C)Cc2cccc(F)c2)CC1C (stereo not shown)	17.13	1.042
CCCC1CN(CC(C)C)C(=O)c2cccnc2O1 (stereo not shown)	-4.658	-5.035
O=C(CCc1ccncc1)N1CCc2c(ncnc2N2CCOCC2)C1	3.371	-31.48
O=C(O)C(F)(F)F.[H][C@@]12CCN(Cc3nccs3)C[C@@]1([H])O[C@@H](C(=O)NC)C2	-	0.008276
O=C(N[C@@H]1CN(Cc2ccc3c(c2)OCO3)[C@@H]2CCCO[C@@H]21)C1CC1	10.46	-
O=C1[C@@H]2CCN(C3CCOCC3)C[C@@H]2OCCN1Cc1cccnc1	7.302	-
Cc1ncsc1-c1nc(Cc2cccs2)nn1C1CCN(C)CC1	25.15	-5.381
Cc1c(CN2CCOCC2)c(O)n(CCc2ccccc2)c(=O)c1C#N	12.18	-2.465
CN1CCN(Cc2ccc(-c3ccc4[nH]ccc4c3)nc2)CC1	11.93	-13.92
CCN(Cc1ccncc1)C(=O)c1cn(CCC2CCCCC2)nn1	7.216	-5.558
COC(=O)C(c1cc(F)ccc1F)N(C)C(=O)c1cnccn1 (stereo not shown)	5.698	-17.33
Cc1cc(C(=O)N2CCc3nnc(N)cc3C2)c(C)n1-c1cccnc1	19.44	3.985
O=C(Nc1cccnc1)N(Cc1ccccc1)C1CC1	7.427	-3.393
Fc1ccccc1NCc1nc2n(n1)CCCCC2	12.46	-24.29
CC(C)[C@@H]1CN(CCOc2ccccc2)C[C@H]1NS(=O)(=O)N(C)C	5.897	5.409
CN1CC(=O)N(c2ccsc2)CC12CCN(S(=O)(=O)c1ccccc1)C2.O=C(O)C(F)(F)F (stereo not shown)	-	-56.37
Cc1cccc(CNC[C@H]2COCc3nc4cccnc4n32)n1	6.84	-22.99
Cc1cccc(C2CCCCN2C(=O)CCCS(C)(=O)=O)c1C (stereo not shown)	15.62	10.34
c1cncc(COCC2CN(Cc3ccncc3)Cc3ccnn3C2)c1 (stereo not shown)	5.842	-17.75
Cc1nnc(SCc2ccccn2)s1	11.08	4.26
CCN1CCCC12CCN(Cc1cccnc1OC)CC2	6.884	-
c1ccc(N2CCCC(c3nc(-c4cccnn4)no3)C2)nc1 (stereo not shown)	14.44	-12.72
O=C(O)C(F)(F)F.[H][C@@]12COC[C@]1(CNC(=O)c1cccn1C)CN(Cc1nccs1)C2	-	-42.54
CNC(=O)c1sccc1S(=O)(=O)NC	-32.99	6.51
Cc1cc(C2CCNCC2)nc(-c2ccsc2)n1	20.25	-
CCN1CCN(C2CCN(Cc3nc(CCOC)no3)CC2)C1=O	26.2	-16.25
CCn1cc(-c2cc(C(F)(F)F)nc(NC3CCCC3)n2)c(C)n1	11.58	32.95
CN1CCC(C(=O)NCc2nncn2-c2ccccc2)CC1=O (stereo not shown)	10.46	22.33

The last 4 entries again:

SMILES,A,B
Cc1cc(C2CCNCC2)nc(-c2ccsc2)n1,20.25,-
CCN1CCN(C2CCN(Cc3nc(CCOC)no3)CC2)C1=O,26.2,-16.25
CCn1cc(-c2cc(C(F)(F)F)nc(NC3CCCC3)n2)c(C)n1,11.58,32.95
CN1CCC(C(=O)NCc2nncn2-c2ccccc2)CC1=O (stereo not shown),10.46,22.33

Source: ChEMBL document CHEMBL3988442, “University of Dundee, Small-Polar-MMV Screening Library” (2021).